The campaign covered roughly 360,000 compounds. About 690 (0.19%) were called active. The inconclusive results got no clear call from the source; some entries with a clear call stand among them for comparison.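 The calls were made as follows: active = fluorescence ratio to DMSO below 75%, the collection mean minus 3 SD; inconclusive = too few cells collected in the well; inactive = the rest.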
Target: ATP-binding cassette sub-family B member 6 (Homo sapiens) (UniProt Q9NP58)
Test: blockers of ABCB6-driven porphyrin uptake – K562-ABCB6 cells, flow cytometry, MLPCN library, primary screen (AID 602162);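 as to Fluorescence ratio to DMSO: signal is porphyrin accumulated inside mitochondria; 100% equals median channel fluorescence of DMSO control wells; lower ratio means ABCB6 inhibition with less porphyrin fluorescence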
Conditions: K562-ABCB6 porphyrin accumulation, 1 h; at 10 µM, hits give low values

Protein sequences, listed by entry. Tags and fused reporters are not part of them.
UniProt Q9NP58, whole entry, looked up: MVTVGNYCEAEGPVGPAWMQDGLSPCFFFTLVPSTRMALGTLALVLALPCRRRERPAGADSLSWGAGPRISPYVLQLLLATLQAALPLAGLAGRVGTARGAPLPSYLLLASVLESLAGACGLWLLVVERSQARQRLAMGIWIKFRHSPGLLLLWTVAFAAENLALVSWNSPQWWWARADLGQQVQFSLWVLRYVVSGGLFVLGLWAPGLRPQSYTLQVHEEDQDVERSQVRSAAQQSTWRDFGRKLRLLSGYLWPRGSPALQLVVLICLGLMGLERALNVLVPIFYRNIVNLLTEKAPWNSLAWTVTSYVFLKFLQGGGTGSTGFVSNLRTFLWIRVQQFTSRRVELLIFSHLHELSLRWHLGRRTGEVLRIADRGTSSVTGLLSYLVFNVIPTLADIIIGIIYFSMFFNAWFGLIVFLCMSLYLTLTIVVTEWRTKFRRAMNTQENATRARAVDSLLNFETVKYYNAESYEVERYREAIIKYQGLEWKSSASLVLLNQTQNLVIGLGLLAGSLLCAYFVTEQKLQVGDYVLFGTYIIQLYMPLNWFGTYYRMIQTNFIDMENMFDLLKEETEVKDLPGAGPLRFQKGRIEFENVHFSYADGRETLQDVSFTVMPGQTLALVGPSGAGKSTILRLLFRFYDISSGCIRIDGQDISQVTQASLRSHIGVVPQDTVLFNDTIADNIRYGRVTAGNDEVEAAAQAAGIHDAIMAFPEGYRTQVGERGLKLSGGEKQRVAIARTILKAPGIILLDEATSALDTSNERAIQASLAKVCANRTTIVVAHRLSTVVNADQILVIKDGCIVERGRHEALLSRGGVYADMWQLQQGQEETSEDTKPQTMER

Fluorescence ratio to DMSO, active:
Cc1ccc(S(=O)(=O)NCCN=C(CN2CCCC2)NS(=O)(=O)c2ccc(C)cc2)cc1 66%
COCCCN(C(C)=O)c1nc(-c2ccc(OC)cc2)cs1 72%
O=C(NC1(C(=O)NC2CCCC2)CCCCC1)c1ccc2c(c1)OCO2 69%
COc1ccccc1Oc1ncnc2c1oc1ccccc12 69%
O=C(NCCc1csc(-c2cccnc2)n1)c1ccc(Cl)cc1 74%
CC(Oc1ccc2c3c(c(=O)oc2c1)CCCC3)C(=O)NCc1cccnc1 (stereo not drawn) 58%
Cc1coc2c1c(C)cc1oc(=O)c(Cc3ccccc3)c(C)c12 66%
Cc1cccc(/C=C2\Sc3ccc(C(=O)N4CCC(C)CC4)cc3N(C)C2=O)c1 13%
O=C(Nc1nnc(-c2ccccc2)o1)c1cc(Cl)sc1Cl 69%
COc1ccccc1C1CCN(Cc2cccc3ccccc23)CC1 68%
Cc1onc(-c2ccccc2)c1C(=O)NNC(=S)NC(=O)/C=C/c1ccccc1 74%
c1ccc(COc2cccc(-c3cc4nc(NCc5ccc6c(c5)OCO6)ccn4n3)c2)cc1 68%
CCOC(=O)c1c(NC(=O)c2ccc(N3C(=O)[C@@H]4[C@H](C3=O)[C@H]3C=C[C@@H]4C3)cc2)sc2c1CC(C)CC2 (stereo partly drawn) 68%
CCCN=Cc1sc2ccc(OCC)cc2c1O 74%
CCOc1ccc2nc(SCC(=O)NCc3ccccc3OC)[nH]c2c1 72%
O=C(NCCSc1ncc(-c2ccccc2)[nH]1)c1ccco1 74%
CCC(=O)Nc1ccc(N2CCN(C(=O)c3ccccc3C)CC2)cc1 65%

Fluorescence ratio to DMSO, inactive:
O=S(=O)(NCc1ccc(F)cc1)c1ccccc1Br 81%
Cn1cnnc1Sc1ccc(/C=C(\CCC(=O)O)c2nc3ccccc3s2)cc1[N+](=O)[O-] 105%
O=C(OCC(=O)N1CCN(S(=O)(=O)c2ccccc2)CC1)C1CCC1 98%
Cc1cc2cc(CNC(=S)NC3CCCCC3)ccc2[nH]1 96%
Cc1noc(C)c1C(=O)Nc1sc(C)c(-c2ccccc2)c1C#N 99%
CSc1ccccc1C(=O)N1CCN(c2cccc(Cl)c2)CC1 84%
O=C(N/N=C/c1ccc(OCc2ccccc2)cc1)c1cc[n+](Cc2ccccc2)cc1 106%
CC1=CC(C)[C@H](/C=N/n2c(=O)[nH]c3c([nH]c4ccc(C)cc43)c2=O)C(C)C1 (stereo partly drawn) 98%
Cn1cc(SCC(=O)N2CCN(c3ccccc3)CC2)c2ccccc21 97%
O=S(=O)(NCCc1ccccc1)c1ccc(Br)cc1 99%
O=C(CSc1ccc2nnc(CCNC(=O)c3ccc(F)cc3)n2n1)NCC1CCCO1 (stereo not drawn) 95%
CCOC(=O)c1cc([N+](=O)[O-])sc1NC(=O)c1ccc(S(=O)(=O)N2CC3(C)CC2CC(C)(C)C3)cc1 (stereo not drawn) 96%
Cc1ccc2nsnc2c1S(=O)(=O)NCc1ccc2c(c1)OCO2 91%
Cc1cc(NC(=O)COc2ccc3ccccc3c2Br)no1 93%
Cc1ccc(-c2nn(Cc3ccccc3)cc2/C=C/C(=O)O)cc1C 109%
Fc1ccccc1NC(=S)NNc1ncc(C(F)(F)F)cc1Cl 90%
CC(/C=C/c1cccc([N+](=O)[O-])c1)=N\NC(=O)c1ccncc1 99%
Oc1ccc(/C=N/Nc2ccnc3cc(Cl)ccc23)c(O)c1O 100%
N#C/C(=C\c1ccc(N2CCOCC2)o1)C(=O)NCCc1ccccc1 99%
O=C(Nc1nc(-c2ccccn2)cs1)C12CC3CC(CC(O)(C3)C1)C2 90%
CCOC(=O)Cc1csc(/N=C/c2c(O)n(-c3ccc(C)c(C)c3)c(=O)c3ccccc23)n1 95%

Fluorescence ratio to DMSO, inconclusive:
CN(C)S(=O)(=O)c1cccc(-c2nn(-c3ccccc3)cc2/C=C(/C#N)C(=O)NCc2ccco2)c1
Cc1ccc(NC(=O)CN2C(=O)NC(Cc3c[nH]c4ccccc34)C2=O)cc1 (stereo not drawn)
O=C(NCc1ccc(F)cc1)Nc1nnc([C@@H]2C[C@H](O)[C@@H](CO)O2)s1
CCOC(=O)C(=O)N(C)c1c(CC)nc2c(OCc3ccccc3)cccn12
C[C@@H](NC(=O)C1(c2ccccc2)CCN(C(=O)OC(C)(C)C)CC1)C(=O)N[C@@H](Cc1ccccc1)C(=O)O
O=C(Nc1ccc(F)cc1)c1ccc(C(=O)N2CCOCC2)cc1
CC1CCCN(Cc2nc3c(c(=O)n(C)c(=O)n3C)n2Cc2c(F)cccc2Cl)C1 (stereo not drawn)
c1cnc(NC2CCCCCC2)nc1
Cn1c(=O)[nH]c(=O)c2c1nc(N1CCCCC1)n2CCSc1nc2ccccc2o1
Cc1ccc(S(=O)(=O)N2CCN(C(=O)COC(=O)CNC(=O)c3ccc(Cl)cc3Cl)CC2)c(C)c1
COc1ccc(CNC(=O)Nc2nnc([C@@H]3C[C@H](O)[C@@H](CO)O3)s2)cc1
Cc1ccc2oc(=O)c3cnn(CC(=O)N(CCC(C)C)Cc4ccco4)c3c2c1
COc1ccc(CCNC(=O)Cn2cccc2C(=O)c2ccccc2C)cc1OC
Cc1ccc2c(c1)N(C(=O)CCC(=O)N1CCN(c3ccccn3)CC1)CC(C)O2 (stereo not drawn)
Cc1ccc(C)c(S(=O)(=O)N2CCCOC2CNC(=O)C(=O)NCc2ccccn2)c1 (stereo not drawn)
CCCC(C)NC(=O)C1CCN(S(=O)(=O)c2ccccc2)CC1 (stereo not drawn)
Cc1noc(C)c1C(=O)OCC(=O)Nc1ccccc1Oc1ccccc1
CCCCN(CCCNc1ncnc2nc[nH]c12)c1ccccc1
COC(=O)c1ccccc1NC(=O)c1cc(-c2ccc(O)cc2)on1
Cc1cc(S(=O)(=O)N2CCN(c3ccc(F)cc3)CC2)c(C)s1
CN(C(=O)COC(=O)COc1ccc2ccccc2c1)c1c(N)n(Cc2ccccc2)c(=O)[nH]c1=O
CC(=O)c1c(C)[nH]c(C(=O)OCC(=O)Nc2ncc(Cl)c(C)c2Cl)c1C
COC(=O)Cn1c(=NC(=O)CSCC(=O)Nc2cc(C)on2)sc2ccccc21
COc1ccc(C(=O)N2CCN(S(=O)(=O)c3ccc(C)cc3C)CC2)cc1OC
Cn1ccnc1SCC(=O)NCC(=O)Nc1ccc(F)c(F)c1F
CC1CCCCC12NC(=O)N(CC(=O)c1ccc3c(c1)OCO3)C2=O (stereo not drawn)
Cc1nc2sc(C(c3cccs3)N3CCN(c4cccc(Cl)c4)CC3)c(O)n2n1 (stereo not drawn)
CC(C)(C)NC(=O)C(=O)NC(=O)c1c(F)cccc1Cl
COc1cccc(NC(=O)CN(C2=NC3CS(=O)(=O)CC3S2)c2cccc(C)c2)c1 (stereo not drawn)
COc1ccc(CC(=O)NC(=S)NNC(=O)COc2c(C)cccc2C)cc1
CCOc1ccc(S(=O)(=O)N2CCCC(C(=O)Nc3ccccc3)C2)cc1 (stereo not drawn)
Cc1nn2c(-n3ccnc3)c3c(nc2c1-c1ccccc1)CCC3
CC1(C(=O)NS(=O)(=O)c2cccc(F)c2)CCN1C(=O)Cc1cccc2ccccc12 (stereo not drawn)
COc1ccc(-c2nnn(CC(=O)N(CC(=O)NCCC(C)C)Cc3cccs3)n2)cc1OC
O=C1NC(SCCCF)=N/C1=C/c1ccc(-n2cncn2)cc1
CCOC(=O)c1c(NC(=O)CSc2nccc(=O)[nH]2)sc(C)c1C
O=C(COC(=O)C1CCN(S(=O)(=O)c2cccs2)CC1)NCc1ccc(F)cc1
CC1(C(=O)NS(=O)(=O)Cc2ccccc2)CCN1C(=O)Cc1ccccc1Cl (stereo not drawn)
CCOC(=O)CSCC(=O)Nc1nnc(-c2cccc([N+](=O)[O-])c2)s1
O=C(OCCCN=C1NS(=O)(=O)c2ccccc21)c1cccs1
CCOC(=O)c1ccc(NC(=O)CNC(=O)C2CCCCC2)cc1
COc1ccc(Cl)cc1CC1(C)C(=O)Nc2c(Cl)cccc21 (stereo not drawn)
Cc1ccc(N(CCC#N)C(=O)CSc2nnc3ccccn23)cc1
COC(=O)c1cccc(NC(=S)N2CCN(c3ccccc3F)CC2)c1
O=c1cc(CN2CCN(Cc3ccc(F)cc3)C(CCO)C2)[nH]c2ccccc12 (stereo not drawn)
Cc1ccc2[nH]c(=O)c(CN(Cc3ccco3)C(=O)N3CCOCC3)cc2c1
Cn1cc(S(=O)(=O)N2CCCC2)cc1C(=O)N1CCN(c2ccccc2)CC1
O=C(OCC#CCSc1nnc(-c2cccc3ccccc23)o1)c1cc2ccccc2o1
Cc1oc(-c2ccccc2Cl)nc1CS(=O)(=O)CC(=O)NC(C)c1ccccc1 (stereo not drawn)
O=C(/C=C/c1cccc(F)c1)Nc1nccs1
O=C(NC(=S)Nn1cnnc1)c1ccccc1
CC(=O)C[C@@H](O)CC(=O)[C@@H]1OC(=O)CCCCCCCc2ccccc21
C#CCOCCOCCOCCNc1nc(N2CCN(C(=O)CCCCCCCCCCNC(=O)[C@@H](CCSC)n3cc(CCO)nn3)CC2)nc(N2CCN(C(=O)CCCCCCCCCCNC(=O)[C@H](CCSC)n3cc(CCO)nn3)CC2)n1
Cc1ccc(C)c(N2CCN(S(=O)(=O)c3ccc4c(c3)CCN4C(=O)CCC(=O)O)CC2)c1
COC(=O)c1cc(COc2ccc3ccc(=O)oc3c2)c(C)o1

A draw from above in order of heavy-atom count, smallest number first:
Fluorescence ratio to DMSO, inconclusive:
O=C(OCCCN=C1NS(=O)(=O)c2ccccc21)c1cccs1
Cc1ccc(NC(=O)CN2C(=O)NC(Cc3c[nH]c4ccccc34)C2=O)cc1 (stereo not drawn)
Cc1nc2sc(C(c3cccs3)N3CCN(c4cccc(Cl)c4)CC3)c(O)n2n1 (stereo not drawn)
